Results taken from patent publication US20200207819A1 (SPIBER TECHNOLOGIES, published 2020).
No constants are given. Whether binding was seen depends on the method and setting. Some results given as binding are weak or reduced against the parent protein; the word gives no strength.

Molecular target: T1, NTwt (wildtype N-terminal (NT) fragment of Euprosthenops australis major ampullate spidroin 1) (Euprosthenops australis)
T1 chain: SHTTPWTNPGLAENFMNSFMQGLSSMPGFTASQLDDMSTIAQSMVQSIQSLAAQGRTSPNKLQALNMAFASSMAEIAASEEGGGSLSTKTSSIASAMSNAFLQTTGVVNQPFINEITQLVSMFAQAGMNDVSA
Test: 2D [15N,1H]-HSQC NMR; homodimerization at pH 5.5
Details: remark: other sources report otherwise

binding: binds
B1: NTwt (wildtype N-terminal (NT) fragment of Euprosthenops australis major ampullate spidroin 1) (protein)
chain: SHTTPWTNPGLAENFMNSFMQGLSSMPGFTASQLDDMSTIAQSMVQSIQSLAAQGRTSPNKLQALNMAFASSMAEIAASEEGGGSLSTKTSSIASAMSNAFLQTTGVVNQPFINEITQLVSMFAQAGMNDVSA
